# Paper doi:10.1101/2024.07.11.602925
# Protein sequences, listed by entry. Tags and fused reporters are not part of them.
# UniProt Q7Z4V5: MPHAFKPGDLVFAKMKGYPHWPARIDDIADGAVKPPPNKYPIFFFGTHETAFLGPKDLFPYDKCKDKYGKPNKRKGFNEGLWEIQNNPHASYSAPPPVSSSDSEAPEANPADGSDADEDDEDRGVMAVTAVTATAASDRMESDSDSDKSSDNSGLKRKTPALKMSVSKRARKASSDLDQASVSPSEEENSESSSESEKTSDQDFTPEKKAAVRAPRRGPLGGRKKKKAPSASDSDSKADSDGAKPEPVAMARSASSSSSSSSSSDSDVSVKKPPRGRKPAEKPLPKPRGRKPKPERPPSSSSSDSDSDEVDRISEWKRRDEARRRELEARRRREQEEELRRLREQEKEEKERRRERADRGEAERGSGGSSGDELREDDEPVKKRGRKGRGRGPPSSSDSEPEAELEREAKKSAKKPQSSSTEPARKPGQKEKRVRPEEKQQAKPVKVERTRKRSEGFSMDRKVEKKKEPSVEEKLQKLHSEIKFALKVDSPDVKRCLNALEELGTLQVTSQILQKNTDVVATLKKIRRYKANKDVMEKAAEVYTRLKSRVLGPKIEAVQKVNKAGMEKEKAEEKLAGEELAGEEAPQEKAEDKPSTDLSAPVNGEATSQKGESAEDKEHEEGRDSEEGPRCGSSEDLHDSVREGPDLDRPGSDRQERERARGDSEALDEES
# UniProt Q9Y2A7: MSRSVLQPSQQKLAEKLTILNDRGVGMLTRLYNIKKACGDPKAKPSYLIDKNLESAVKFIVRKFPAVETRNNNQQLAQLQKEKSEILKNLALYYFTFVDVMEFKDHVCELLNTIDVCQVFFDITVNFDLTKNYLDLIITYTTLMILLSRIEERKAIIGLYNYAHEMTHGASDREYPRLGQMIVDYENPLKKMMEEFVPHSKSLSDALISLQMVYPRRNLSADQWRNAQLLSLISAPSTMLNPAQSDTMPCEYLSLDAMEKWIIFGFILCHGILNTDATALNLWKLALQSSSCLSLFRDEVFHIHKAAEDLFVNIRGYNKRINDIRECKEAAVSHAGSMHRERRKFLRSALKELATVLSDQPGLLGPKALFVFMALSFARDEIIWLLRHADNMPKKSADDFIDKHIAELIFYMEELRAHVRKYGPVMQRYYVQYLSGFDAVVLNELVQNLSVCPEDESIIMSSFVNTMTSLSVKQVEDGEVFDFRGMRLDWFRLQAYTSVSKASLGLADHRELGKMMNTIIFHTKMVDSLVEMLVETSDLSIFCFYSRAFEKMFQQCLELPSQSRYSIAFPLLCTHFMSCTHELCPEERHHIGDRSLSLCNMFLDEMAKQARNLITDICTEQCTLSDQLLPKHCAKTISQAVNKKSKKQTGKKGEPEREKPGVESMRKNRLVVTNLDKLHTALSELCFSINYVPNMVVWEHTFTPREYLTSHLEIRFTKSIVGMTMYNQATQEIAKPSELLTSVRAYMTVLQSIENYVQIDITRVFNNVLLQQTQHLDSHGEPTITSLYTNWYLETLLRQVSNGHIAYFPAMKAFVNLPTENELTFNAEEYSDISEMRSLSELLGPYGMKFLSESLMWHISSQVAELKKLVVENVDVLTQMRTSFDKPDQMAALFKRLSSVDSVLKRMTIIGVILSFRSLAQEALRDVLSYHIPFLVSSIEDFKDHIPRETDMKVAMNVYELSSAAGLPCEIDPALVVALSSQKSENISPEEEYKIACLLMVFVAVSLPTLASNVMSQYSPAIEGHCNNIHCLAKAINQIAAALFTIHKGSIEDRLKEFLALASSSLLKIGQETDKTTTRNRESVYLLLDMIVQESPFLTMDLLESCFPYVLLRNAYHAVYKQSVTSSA
# UniProt Q9NR12: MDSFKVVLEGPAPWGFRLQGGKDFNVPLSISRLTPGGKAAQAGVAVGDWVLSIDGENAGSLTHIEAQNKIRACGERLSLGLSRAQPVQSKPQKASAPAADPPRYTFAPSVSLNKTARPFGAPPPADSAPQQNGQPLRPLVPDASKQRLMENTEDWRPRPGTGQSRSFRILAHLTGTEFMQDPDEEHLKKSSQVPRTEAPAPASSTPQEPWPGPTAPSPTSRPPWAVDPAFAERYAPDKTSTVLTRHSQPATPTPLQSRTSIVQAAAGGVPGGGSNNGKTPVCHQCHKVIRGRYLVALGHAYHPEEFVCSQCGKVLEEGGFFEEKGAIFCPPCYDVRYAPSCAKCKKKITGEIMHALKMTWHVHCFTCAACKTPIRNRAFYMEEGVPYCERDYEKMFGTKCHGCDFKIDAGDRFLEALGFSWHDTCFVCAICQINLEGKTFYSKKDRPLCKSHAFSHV
# UniProt Q9Y3P9: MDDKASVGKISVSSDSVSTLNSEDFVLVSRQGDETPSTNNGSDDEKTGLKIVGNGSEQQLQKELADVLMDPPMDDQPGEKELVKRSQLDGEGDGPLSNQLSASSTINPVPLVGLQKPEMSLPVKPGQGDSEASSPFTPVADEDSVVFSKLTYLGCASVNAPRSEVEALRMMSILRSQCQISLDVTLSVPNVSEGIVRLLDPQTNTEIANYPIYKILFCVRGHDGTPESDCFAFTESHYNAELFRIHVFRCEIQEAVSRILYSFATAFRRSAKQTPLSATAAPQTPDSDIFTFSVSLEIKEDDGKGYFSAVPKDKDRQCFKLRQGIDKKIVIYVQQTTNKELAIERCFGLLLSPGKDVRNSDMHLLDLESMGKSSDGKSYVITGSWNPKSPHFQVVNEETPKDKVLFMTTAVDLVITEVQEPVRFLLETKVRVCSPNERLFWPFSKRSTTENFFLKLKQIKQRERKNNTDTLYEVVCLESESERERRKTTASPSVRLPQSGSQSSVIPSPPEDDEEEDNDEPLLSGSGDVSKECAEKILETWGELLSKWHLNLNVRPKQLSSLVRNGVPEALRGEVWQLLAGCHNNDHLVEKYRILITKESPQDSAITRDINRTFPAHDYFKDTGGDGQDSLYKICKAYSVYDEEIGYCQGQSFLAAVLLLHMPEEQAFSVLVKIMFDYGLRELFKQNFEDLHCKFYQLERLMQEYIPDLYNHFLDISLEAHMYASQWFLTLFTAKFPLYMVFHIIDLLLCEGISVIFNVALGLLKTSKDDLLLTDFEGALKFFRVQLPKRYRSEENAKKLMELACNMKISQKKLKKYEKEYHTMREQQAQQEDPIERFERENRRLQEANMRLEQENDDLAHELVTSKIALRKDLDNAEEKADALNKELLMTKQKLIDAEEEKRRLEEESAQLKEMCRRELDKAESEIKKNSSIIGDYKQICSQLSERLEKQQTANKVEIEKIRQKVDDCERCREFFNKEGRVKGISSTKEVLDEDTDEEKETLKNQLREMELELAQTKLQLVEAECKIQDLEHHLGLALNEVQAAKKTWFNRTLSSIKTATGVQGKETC
# UniProt Q4G0F5: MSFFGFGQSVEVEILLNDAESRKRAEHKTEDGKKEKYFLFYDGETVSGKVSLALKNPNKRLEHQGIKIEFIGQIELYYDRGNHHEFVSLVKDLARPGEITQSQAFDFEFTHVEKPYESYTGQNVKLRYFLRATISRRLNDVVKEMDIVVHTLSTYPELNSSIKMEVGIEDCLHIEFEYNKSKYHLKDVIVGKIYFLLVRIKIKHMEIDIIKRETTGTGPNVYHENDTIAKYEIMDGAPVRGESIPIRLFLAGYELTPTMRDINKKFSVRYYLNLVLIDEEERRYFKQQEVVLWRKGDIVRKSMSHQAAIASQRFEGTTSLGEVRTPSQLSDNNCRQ
# Where two headings read alike, the source gives them in different places. No constants are given. Whether binding was seen depends on the method and setting. Binding seen in cells or lysates may run through a third protein. Here binding means that the protein was enriched with, or labelled near, the bait; the list need not be complete.
# B1: cold-inducible RNA-binding protein (CIRBP) (protein, UniProt Q14011 1-172)
# chain: MASDEGKLFVGGLSFDTNEQSLEQVFSKYGQISEVVVVKDRETQRSRGFGFVTFENIDDAKDAMMAMNGKSVDGRQIRVDQAGKSSDNRSRGYRGGSAGGRGFFRGGRGRGRGFSRGGGDRGYGGNRFESRSGGYGGSRDYYSSRSQSGGYSDRSSGGSYRDSYDSYATHNE
# B2: NUMB (protein, UniProt P49757 1-651)
# chain: MNKLRQSFRRKKDVYVPEASRPHQWQTDEEGVRTGKCSFPVKYLGHVEVDESRGMHICEDAVKRLKAERKFFKGFFGKTGKKAVKAVLWVSADGLRVVDEKTKDLIVDQTIEKVSFCAPDRNFDRAFSYICRDGTTRRWICHCFMAVKDTGERLSHAVGCAFAACLERKQKREKECGVTATFDASRTTFTREGSFRVTTATEQAEREEIMKQMQDAKKAETDKIVVGSSVAPGNTAPSPSSPTSPTSDATTSLEMNNPHAIPRRHAPIEQLARQGSFRGFPALSQKMSPFKRQLSLRINELPSTMQRKTDFPIKNAVPEVEGEAESISSLCSQITNAFSTPEDPFSSAPMTKPVTVVAPQSPTFQANGTDSAFHVLAKPAHTALAPVAMPVRETNPWAHAPDAANKEIAATCSGTEWGQSSGAASPGLFQAGHRRTPSEADRWLEEVSKSVRAQQPQASAAPLQPVLQPPPPTAISQPASPFQGNAFLTSQPVPVGVVPALQPAFVPAQSYPVANGMPYPAPNVPVVGITPSQMVANVFGTAGHPQAAHPHQSPSLVRQQTFPHYEASSATTSPFFKPPAQHLNGSAAFNGVDDGRLASADRHTEVPTGTCPVDPFEAQWAALENKSKQRTNPSPTNPFSSDLQKTFEIEL
# What was measured:
# [1] = molecular target: GST fused to the WT cytosolic tail of APP (649-695) (UniProt P05067); experiment: affinity purification with mass spectrometry
# [2] = molecular target: GST fused to the WT cytosolic tail of APP (649-695) (UniProt P05067); experiment: affinity purification with mass spectrometry; remark: listed apart in the source
Molecule,binding [1],binding [2]
HDGFL2 (from UniProt Q7Z4V5 1-671),binds,–
NCKAP1 (from UniProt Q9Y2A7 1-1128),binds,–
PDLIM7 (from UniProt Q9NR12 1-457),binds,–
RABGAP1 (from UniProt Q9Y3P9 1-1069),binds,–
VPS26A (from UniProt O75436 1-327),binds,–
VPS26B (from UniProt Q4G0F5 1-336),binds,–
B1,–,binds
B2,–,binds
